Test: Charcoal MTZ adsorption kinetics study (PMD and direct donor sampling)
Type: physicochemical
Conditions: 37° C.
Description: A charcoal suspension was prepared at least 24 hours before use by adding 0.6 g of activated charcoal (Sigma Chemical, St. Louis, Mo.) to 100 mL of 0.6% Dextran Solution (Birkmeier et al., 1995). A donor solution of MTZ in 0.005N NaOH was made with an initial concentration of C0=200 μg/mL and volume of 48 mL. A probe was immersed in the solution, and PMD was started before adding the charcoal using a dialysate that initially contained no MTZ. Samples were collected every 10 seconds, using a resting time of 8 seconds, a flow rate of 100 μL/min, and a sample volume of 5 μL. After collecting at least six samples, 2 mL of the charcoal suspension was quickly (in 1-2 seconds) mixed into 48 mL of stirred MTZ solution, giving a final volume of 50 mL. […] Samples were collected during 10 second intervals, and the start times for the sampling intervals were 0, 0.2, 0.4, 0.7, 1, 2, 5, 10 and 30 minutes. The flow rate was 100 μL/min, the rest time was 8 seconds, and the sample volume was 5 μL. The samples were immediately analyzed using HPLC. […] Direct sampling of the donor was also done at various times for comparison with the PMD data. The direct donor samples were immediately filtered to remove the activated charcoal and analyzed using HPLC.

CC(=O)/N=c1/sc(S(N)(=O)=O)nn1C [MTZ, methazolamide]
free MTZ concentration after the first minute after addition of the activated charcoal (1 minute): 2.8 µg/mL
free MTZ concentration at addition of the activated charcoal (start of first minute): 5.4 µg/mL

Reference: patent publication US8652087B2, “Method for use of microdialysis” (priority 2009, dated 2014)
